Test results from PubChem BioAssay AID256 (DTP/NCI, 2004).
The list does not hold the whole screen: it covers a few groups of compounds. Other doses and runs of a compound may be missing. T/C: endpoint of the treated group in % of that of the vehicle group. Where survival is the endpoint, this PubChem deposit counts one and a half times the control or more as active, and values a quarter to a half above the control carry no call in these data; other NCI protocols may use other cut-offs. Schedule codes are those of the source, read here as Q, the interval in days (D) or hours (H), X, the number of doses. Some T/C values are marked as having no survivor count here; that says nothing about deaths at the dose. Some entries were tested several times; their values stand side by side, smallest first.

System: CD2F1 mice, L1210 leukemia ip, survival T/C
Assay: NCI In Vivo Anticancer Drug Screen. Data for tumor model L1210 Leukemia (intraperitoneal) in CD2F1 (CDF1) mice
Conditions: higher T/C = longer survival
Method: The antitumor activity of compounds was measured in mice bearing transplantable tumors. Survival or tumor size were measured and the results are expressed as the measurement made in the treated group (T) divided by the measurement made in the vehicle treated control group (C). The tumor model used in this assay is L1210 Leukemia (intraperitoneal) in CD2F1 (CDF1) mice

## CC(=O)OCC12CCC(C)=CC1OC1C(O)C(OC(C)=O)C2(C)C12CO2 (stereo unspecified)
T/C endpoint: mean survival time, dose: 0.06 mg/kg/injection, schedule: Q03HX008 (ip), vehicle: saline
  T/C: 113 % of control [survivor count not shown]
T/C endpoint: mean survival time, dose: 0.06 mg/kg/injection, schedule: Q03HX016 (ip), vehicle: saline
  T/C: 104 % of control [survivor count not shown]
T/C endpoint: mean survival time, dose: 0.06 mg/kg/injection, schedule: Q03HX024 (ip), vehicle: saline
  T/C: 109 % of control [survivor count not shown]
T/C endpoint: mean survival time, dose: 0.13 mg/kg/injection, schedule: Q03HX008 (ip), vehicle: saline
  T/C: 119 % of control [survivor count not shown]
T/C endpoint: mean survival time, dose: 0.13 mg/kg/injection, schedule: Q03HX024 (ip), vehicle: saline
  T/C: 118 % of control [survivor count not shown]
T/C endpoint: mean survival time, dose: 0.25 mg/kg/injection, schedule: Q01DX009 (ip), vehicle: saline
  T/C: 118 % of control [survivor count not shown]
T/C endpoint: mean survival time, dose: 0.25 mg/kg/injection, schedule: Q03HX008 (ip), vehicle: saline
  T/C: 129 % of control [survivor count not shown]
T/C endpoint: mean survival time, dose: 0.25 mg/kg/injection, schedule: Q03HX016 (ip), vehicle: saline
  T/C: 116 % of control [survivor count not shown]
T/C endpoint: mean survival time, dose: 0.25 mg/kg/injection, schedule: Q03HX024 (ip), vehicle: saline
  T/C: 119 % of control [survivor count not shown]
T/C endpoint: mean survival time, dose: 0.5 mg/kg/injection, schedule: Q01DX009 (ip), vehicle: saline
  T/C: 119 % of control [survivor count not shown]
T/C endpoint: mean survival time, dose: 0.5 mg/kg/injection, schedule: Q01DX009 (iv), vehicle: saline
  T/C: 124 % of control [survivor count not shown]
T/C endpoint: mean survival time, dose: 0.5 mg/kg/injection, schedule: Q01DX009 (sc), vehicle: saline
  T/C: 110 % of control [survivor count not shown]
T/C endpoint: mean survival time, dose: 0.5 mg/kg/injection, schedule: Q03HX008 (ip), vehicle: saline
  T/C: 117 [survivor count not shown] and 138 % of control [survivor count not shown]
T/C endpoint: mean survival time, dose: 0.5 mg/kg/injection, schedule: Q03HX016 (ip), vehicle: saline
  T/C: 122 % of control [survivor count not shown]
T/C endpoint: mean survival time, dose: 0.5 mg/kg/injection, schedule: Q03HX024 (ip), vehicle: saline
  T/C: 141 [survivor count not shown] and 144 % of control [survivor count not shown]
T/C endpoint: mean survival time, dose: 1.0 mg/kg/injection, schedule: Q01DX009 (ip), vehicle: saline
  T/C: 131 % of control [survivor count not shown]
T/C endpoint: mean survival time, dose: 1.0 mg/kg/injection, schedule: Q01DX009 (iv), vehicle: saline
  T/C: 130 % of control [survivor count not shown]
T/C endpoint: mean survival time, dose: 1.0 mg/kg/injection, schedule: Q01DX009 (oral), vehicle: saline
  T/C: 110 % of control [survivor count not shown]
T/C endpoint: mean survival time, dose: 1.0 mg/kg/injection, schedule: Q01DX009 (sc), vehicle: saline
  T/C: 127 % of control [survivor count not shown]
T/C endpoint: mean survival time, dose: 1.0 mg/kg/injection, schedule: Q03HX008 (ip), vehicle: saline
  T/C: 136 % of control [survivor count not shown]
T/C endpoint: mean survival time, dose: 1.0 mg/kg/injection, schedule: Q03HX016 (ip), vehicle: saline
  T/C: 127 % of control [survivor count not shown]
T/C endpoint: mean survival time, dose: 2.0 mg/kg/injection, schedule: Q01DX001 (ip), vehicle: saline
  T/C: 103 % of control [survivor count not shown]
T/C endpoint: mean survival time, dose: 2.0 mg/kg/injection, schedule: Q01DX009 (ip), vehicle: saline
  T/C: 137 % of control [survivor count not shown]
T/C endpoint: mean survival time, dose: 2.0 mg/kg/injection, schedule: Q01DX009 (iv), vehicle: saline
  T/C: 134 % of control [survivor count not shown]
T/C endpoint: mean survival time, dose: 2.0 mg/kg/injection, schedule: Q01DX009 (oral), vehicle: saline
  T/C: 121 % of control [survivor count not shown]
T/C endpoint: mean survival time, dose: 2.0 mg/kg/injection, schedule: Q01DX009 (sc), vehicle: saline
  T/C: 121 % of control [survivor count not shown]
T/C endpoint: mean survival time, dose: 2.0 mg/kg/injection, schedule: Q04DX003 (ip), vehicle: saline
  T/C: 114 % of control [survivor count not shown]
T/C endpoint: mean survival time, dose: 2.0 mg/kg/injection, schedule: Q08DX002 (ip), vehicle: saline
  T/C: 96 % of control [survivor count not shown]
T/C endpoint: mean survival time, dose: 4.0 mg/kg/injection, schedule: Q01DX001 (ip), vehicle: saline
  T/C: 93 [survivor count not shown] and 107 % of control [survivor count not shown]
T/C endpoint: mean survival time, dose: 4.0 mg/kg/injection, schedule: Q01DX001 (iv), vehicle: saline
  T/C: 110 % of control [survivor count not shown]
T/C endpoint: mean survival time, dose: 4.0 mg/kg/injection, schedule: Q01DX001 (oral), vehicle: saline
  T/C: 103 % of control [survivor count not shown]
T/C endpoint: mean survival time, dose: 4.0 mg/kg/injection, schedule: Q01DX009 (ip), vehicle: saline
  T/C: 126 % of control [survivor count not shown]
T/C endpoint: mean survival time, dose: 4.0 mg/kg/injection, schedule: Q01DX009 (iv), vehicle: saline
  T/C: 101 % of control [survivor count not shown]
T/C endpoint: mean survival time, dose: 4.0 mg/kg/injection, schedule: Q01DX009 (oral), vehicle: saline
  T/C: 89 % of control [survivor count not shown]
T/C endpoint: mean survival time, dose: 4.0 mg/kg/injection, schedule: Q04DX003 (ip), vehicle: saline
  T/C: 113 [survivor count not shown] and 117 % of control [survivor count not shown]
T/C endpoint: mean survival time, dose: 4.0 mg/kg/injection, schedule: Q08DX002 (ip), vehicle: saline
  T/C: 102 [survivor count not shown] and 105 % of control [survivor count not shown]
T/C endpoint: mean survival time, dose: 8.0 mg/kg/injection, schedule: Q01DX001 (ip), vehicle: saline
  T/C: 104 % of control [survivor count not shown]
T/C endpoint: mean survival time, dose: 8.0 mg/kg/injection, schedule: Q01DX001 (oral), vehicle: saline
  T/C: 108 % of control [survivor count not shown]
T/C endpoint: mean survival time, dose: 8.0 mg/kg/injection, schedule: Q04DX003 (ip), vehicle: saline
  T/C: 115 [survivor count not shown] and 123 % of control [survivor count not shown]
T/C endpoint: mean survival time, dose: 8.0 mg/kg/injection, schedule: Q08DX002 (ip), vehicle: saline
  T/C: 100 [survivor count not shown] and 110 % of control [survivor count not shown]
T/C endpoint: median survival time, dose: 0.25 mg/kg/injection, schedule: Q01DX009 (ip), vehicle: saline
  T/C: 110 % of control [survivor count not shown]
T/C endpoint: median survival time, dose: 0.5 mg/kg/injection, schedule: Q01DX009 (ip), vehicle: saline
  T/C: 125 % of control [survivor count not shown]
T/C endpoint: median survival time, dose: 1.0 mg/kg/injection, schedule: Q01DX009 (ip), vehicle: saline
  T/C: 134 % of control [survivor count not shown]
T/C endpoint: median survival time, dose: 2.0 mg/kg/injection, schedule: Q01DX009 (ip), vehicle: saline
  T/C: 135 % of control [survivor count not shown]
T/C endpoint: median survival time, dose: 4.0 mg/kg/injection, schedule: Q01DX009 (ip), vehicle: saline
  T/C: 143 % of control [survivor count not shown]

## CC1=C[C@H]2O[C@@H]3C[C@H]4OC(=O)/C=C\C=C\[C@H]([C@@H](C)O)OC[C@H](O)[C@@]5(C)O[C@@H]5C(=O)OC[C@@]2(C[C@H]1O)[C@]4(C)C31CO1 (stereo partly specified)
T/C endpoint: mean survival time, dose: 0.15 mg/kg/injection, schedule: Q01DX009 (ip), vehicle: Klucel (hydroxypropylcellulose) (HPC)
  T/C: 104 % of control [survivor count not shown]
T/C endpoint: mean survival time, dose: 0.62 mg/kg/injection, schedule: Q01DX009 (ip), vehicle: Klucel (hydroxypropylcellulose) (HPC)
  T/C: 119 % of control [survivor count not shown]
T/C endpoint: mean survival time, dose: 1.25 mg/kg/injection, schedule: Q01DX009 (ip), vehicle: Klucel (hydroxypropylcellulose) (HPC)
  T/C: 114 % of control [survivor count not shown]
T/C endpoint: mean survival time, dose: 5.0 mg/kg/injection, schedule: Q01DX009 (ip), vehicle: Klucel (hydroxypropylcellulose) (HPC)
  T/C: 86 % of control [survivor count not shown]

## C=C(C)C(=O)OCC12CCC(C)=CC1OC1C(=O)C(OC(=O)C(=C)C)C2(C)C12CO2 (stereo unspecified)
T/C endpoint: median survival time, dose: 0.25 mg/kg/injection, schedule: Q01DX009 (ip), vehicle: DMSO
  T/C: 103 % of control [survivor count not shown]
T/C endpoint: median survival time, dose: 0.25 mg/kg/injection, schedule: Q01DX009 (ip), vehicle: distilled water + Tween-80
  T/C: 100 % of control [survivor count not shown]
T/C endpoint: median survival time, dose: 0.5 mg/kg/injection, schedule: Q01DX009 (ip), vehicle: DMSO
  T/C: 111 % of control [survivor count not shown]
T/C endpoint: median survival time, dose: 0.5 mg/kg/injection, schedule: Q01DX009 (ip), vehicle: distilled water + Tween-80
  T/C: 102 % of control [survivor count not shown]
T/C endpoint: median survival time, dose: 1.0 mg/kg/injection, schedule: Q01DX009 (ip), vehicle: distilled water + Tween-80
  T/C: 101 % of control [survivor count not shown]
T/C endpoint: median survival time, dose: 2.0 mg/kg/injection, schedule: Q01DX009 (ip), vehicle: distilled water + Tween-80
  T/C: 108 % of control [survivor count not shown]
T/C endpoint: median survival time, dose: 4.0 mg/kg/injection, schedule: Q01DX009 (ip), vehicle: distilled water + Tween-80
  T/C: 111 % of control [survivor count not shown]
